No constants are given. Whether binding was seen depends on the method and setting. Binding seen in cells or lysates may run through a third protein. Tags and fused reporters may be left off the sequences shown.

For this assay, the target named is T1, GST-tagged Wls-CT (residues 493-541) (UniProt Q5T9L3).
T1 sequence: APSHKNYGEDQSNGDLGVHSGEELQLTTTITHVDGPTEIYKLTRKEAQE
In words: pull-down; GST-tagged proteins bound to glutathione sepharose beads, incubated with S-tagged proteins (bacterial lysates in PBS, 1% Triton X-100); eluted with SDS loading dye; western blot with HRP-conjugated S-tag antibody; only the target purified. (In general: A western blot detects proteins with antibodies after separation by electrophoresis.)

On to “S-tagged C-terminal portion of WlsX (Wls-CTX) (human) (domain or fragment)”, for which the binding result was “no binding”.

The record behind these values is paper PMC6615345.
